The other results are listed elsewhere or left out. Most values lie at the level of the controls, where differences are scatter.

Protein sequences, listed by entry. Tags and fused reporters are not part of them. Lines headed by an entry give the natural chain unless they say otherwise; changes in a name come on top.
UniProt Q92783: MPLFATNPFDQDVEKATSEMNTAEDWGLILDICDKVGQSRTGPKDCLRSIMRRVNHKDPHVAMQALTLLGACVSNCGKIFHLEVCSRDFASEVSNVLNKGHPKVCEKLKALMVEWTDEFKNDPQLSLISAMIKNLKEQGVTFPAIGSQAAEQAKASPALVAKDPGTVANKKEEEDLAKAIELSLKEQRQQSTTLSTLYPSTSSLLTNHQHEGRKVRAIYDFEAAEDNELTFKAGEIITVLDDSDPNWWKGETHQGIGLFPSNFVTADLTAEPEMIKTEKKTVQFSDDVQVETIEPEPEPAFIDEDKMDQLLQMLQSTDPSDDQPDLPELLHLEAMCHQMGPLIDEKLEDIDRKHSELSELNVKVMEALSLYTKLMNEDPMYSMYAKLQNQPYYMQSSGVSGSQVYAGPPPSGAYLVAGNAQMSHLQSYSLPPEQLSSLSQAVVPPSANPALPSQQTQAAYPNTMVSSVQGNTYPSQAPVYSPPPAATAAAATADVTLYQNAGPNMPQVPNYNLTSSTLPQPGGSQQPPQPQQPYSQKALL
UniProt Q8WUH1: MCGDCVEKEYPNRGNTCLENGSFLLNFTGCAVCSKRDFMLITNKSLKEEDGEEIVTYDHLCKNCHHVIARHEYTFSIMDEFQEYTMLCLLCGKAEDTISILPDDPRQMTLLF
UniProt Q92572: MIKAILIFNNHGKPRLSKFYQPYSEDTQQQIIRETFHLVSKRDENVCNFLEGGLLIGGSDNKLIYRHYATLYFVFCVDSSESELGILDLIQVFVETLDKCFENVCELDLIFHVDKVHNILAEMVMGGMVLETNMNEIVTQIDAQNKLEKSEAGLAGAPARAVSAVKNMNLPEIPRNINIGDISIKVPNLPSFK
UniProt Q8TE57: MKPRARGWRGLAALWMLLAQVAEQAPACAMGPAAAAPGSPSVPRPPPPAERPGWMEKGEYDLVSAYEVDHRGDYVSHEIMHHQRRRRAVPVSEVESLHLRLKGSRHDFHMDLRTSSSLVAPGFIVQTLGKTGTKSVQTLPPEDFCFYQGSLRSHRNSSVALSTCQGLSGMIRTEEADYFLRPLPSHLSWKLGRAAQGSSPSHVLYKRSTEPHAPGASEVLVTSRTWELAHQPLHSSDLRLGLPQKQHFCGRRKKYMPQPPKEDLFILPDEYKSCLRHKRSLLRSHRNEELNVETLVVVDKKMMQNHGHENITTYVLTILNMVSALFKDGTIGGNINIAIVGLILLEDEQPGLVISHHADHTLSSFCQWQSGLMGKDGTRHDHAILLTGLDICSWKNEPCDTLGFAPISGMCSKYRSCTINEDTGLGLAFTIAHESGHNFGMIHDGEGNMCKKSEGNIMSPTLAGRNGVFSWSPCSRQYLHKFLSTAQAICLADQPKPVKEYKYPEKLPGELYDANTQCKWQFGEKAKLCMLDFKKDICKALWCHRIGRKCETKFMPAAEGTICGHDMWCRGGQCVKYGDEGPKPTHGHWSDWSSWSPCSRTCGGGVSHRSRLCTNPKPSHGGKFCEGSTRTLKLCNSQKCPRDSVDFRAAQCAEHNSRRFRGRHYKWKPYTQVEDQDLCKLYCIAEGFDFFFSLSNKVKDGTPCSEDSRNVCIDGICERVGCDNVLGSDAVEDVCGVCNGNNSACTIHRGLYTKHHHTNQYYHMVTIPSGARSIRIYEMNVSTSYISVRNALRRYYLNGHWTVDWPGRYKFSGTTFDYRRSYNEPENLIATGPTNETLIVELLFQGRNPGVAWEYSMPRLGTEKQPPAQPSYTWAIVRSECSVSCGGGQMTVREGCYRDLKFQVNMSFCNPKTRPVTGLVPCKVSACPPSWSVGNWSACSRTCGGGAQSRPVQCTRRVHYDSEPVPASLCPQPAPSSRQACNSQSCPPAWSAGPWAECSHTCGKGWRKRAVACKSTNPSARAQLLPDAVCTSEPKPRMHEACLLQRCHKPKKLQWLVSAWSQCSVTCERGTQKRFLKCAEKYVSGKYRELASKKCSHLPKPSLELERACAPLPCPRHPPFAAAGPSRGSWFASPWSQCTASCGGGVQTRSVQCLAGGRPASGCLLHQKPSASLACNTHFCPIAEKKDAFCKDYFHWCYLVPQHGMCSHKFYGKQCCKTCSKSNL
UniProt Q8TDJ6, whole entry: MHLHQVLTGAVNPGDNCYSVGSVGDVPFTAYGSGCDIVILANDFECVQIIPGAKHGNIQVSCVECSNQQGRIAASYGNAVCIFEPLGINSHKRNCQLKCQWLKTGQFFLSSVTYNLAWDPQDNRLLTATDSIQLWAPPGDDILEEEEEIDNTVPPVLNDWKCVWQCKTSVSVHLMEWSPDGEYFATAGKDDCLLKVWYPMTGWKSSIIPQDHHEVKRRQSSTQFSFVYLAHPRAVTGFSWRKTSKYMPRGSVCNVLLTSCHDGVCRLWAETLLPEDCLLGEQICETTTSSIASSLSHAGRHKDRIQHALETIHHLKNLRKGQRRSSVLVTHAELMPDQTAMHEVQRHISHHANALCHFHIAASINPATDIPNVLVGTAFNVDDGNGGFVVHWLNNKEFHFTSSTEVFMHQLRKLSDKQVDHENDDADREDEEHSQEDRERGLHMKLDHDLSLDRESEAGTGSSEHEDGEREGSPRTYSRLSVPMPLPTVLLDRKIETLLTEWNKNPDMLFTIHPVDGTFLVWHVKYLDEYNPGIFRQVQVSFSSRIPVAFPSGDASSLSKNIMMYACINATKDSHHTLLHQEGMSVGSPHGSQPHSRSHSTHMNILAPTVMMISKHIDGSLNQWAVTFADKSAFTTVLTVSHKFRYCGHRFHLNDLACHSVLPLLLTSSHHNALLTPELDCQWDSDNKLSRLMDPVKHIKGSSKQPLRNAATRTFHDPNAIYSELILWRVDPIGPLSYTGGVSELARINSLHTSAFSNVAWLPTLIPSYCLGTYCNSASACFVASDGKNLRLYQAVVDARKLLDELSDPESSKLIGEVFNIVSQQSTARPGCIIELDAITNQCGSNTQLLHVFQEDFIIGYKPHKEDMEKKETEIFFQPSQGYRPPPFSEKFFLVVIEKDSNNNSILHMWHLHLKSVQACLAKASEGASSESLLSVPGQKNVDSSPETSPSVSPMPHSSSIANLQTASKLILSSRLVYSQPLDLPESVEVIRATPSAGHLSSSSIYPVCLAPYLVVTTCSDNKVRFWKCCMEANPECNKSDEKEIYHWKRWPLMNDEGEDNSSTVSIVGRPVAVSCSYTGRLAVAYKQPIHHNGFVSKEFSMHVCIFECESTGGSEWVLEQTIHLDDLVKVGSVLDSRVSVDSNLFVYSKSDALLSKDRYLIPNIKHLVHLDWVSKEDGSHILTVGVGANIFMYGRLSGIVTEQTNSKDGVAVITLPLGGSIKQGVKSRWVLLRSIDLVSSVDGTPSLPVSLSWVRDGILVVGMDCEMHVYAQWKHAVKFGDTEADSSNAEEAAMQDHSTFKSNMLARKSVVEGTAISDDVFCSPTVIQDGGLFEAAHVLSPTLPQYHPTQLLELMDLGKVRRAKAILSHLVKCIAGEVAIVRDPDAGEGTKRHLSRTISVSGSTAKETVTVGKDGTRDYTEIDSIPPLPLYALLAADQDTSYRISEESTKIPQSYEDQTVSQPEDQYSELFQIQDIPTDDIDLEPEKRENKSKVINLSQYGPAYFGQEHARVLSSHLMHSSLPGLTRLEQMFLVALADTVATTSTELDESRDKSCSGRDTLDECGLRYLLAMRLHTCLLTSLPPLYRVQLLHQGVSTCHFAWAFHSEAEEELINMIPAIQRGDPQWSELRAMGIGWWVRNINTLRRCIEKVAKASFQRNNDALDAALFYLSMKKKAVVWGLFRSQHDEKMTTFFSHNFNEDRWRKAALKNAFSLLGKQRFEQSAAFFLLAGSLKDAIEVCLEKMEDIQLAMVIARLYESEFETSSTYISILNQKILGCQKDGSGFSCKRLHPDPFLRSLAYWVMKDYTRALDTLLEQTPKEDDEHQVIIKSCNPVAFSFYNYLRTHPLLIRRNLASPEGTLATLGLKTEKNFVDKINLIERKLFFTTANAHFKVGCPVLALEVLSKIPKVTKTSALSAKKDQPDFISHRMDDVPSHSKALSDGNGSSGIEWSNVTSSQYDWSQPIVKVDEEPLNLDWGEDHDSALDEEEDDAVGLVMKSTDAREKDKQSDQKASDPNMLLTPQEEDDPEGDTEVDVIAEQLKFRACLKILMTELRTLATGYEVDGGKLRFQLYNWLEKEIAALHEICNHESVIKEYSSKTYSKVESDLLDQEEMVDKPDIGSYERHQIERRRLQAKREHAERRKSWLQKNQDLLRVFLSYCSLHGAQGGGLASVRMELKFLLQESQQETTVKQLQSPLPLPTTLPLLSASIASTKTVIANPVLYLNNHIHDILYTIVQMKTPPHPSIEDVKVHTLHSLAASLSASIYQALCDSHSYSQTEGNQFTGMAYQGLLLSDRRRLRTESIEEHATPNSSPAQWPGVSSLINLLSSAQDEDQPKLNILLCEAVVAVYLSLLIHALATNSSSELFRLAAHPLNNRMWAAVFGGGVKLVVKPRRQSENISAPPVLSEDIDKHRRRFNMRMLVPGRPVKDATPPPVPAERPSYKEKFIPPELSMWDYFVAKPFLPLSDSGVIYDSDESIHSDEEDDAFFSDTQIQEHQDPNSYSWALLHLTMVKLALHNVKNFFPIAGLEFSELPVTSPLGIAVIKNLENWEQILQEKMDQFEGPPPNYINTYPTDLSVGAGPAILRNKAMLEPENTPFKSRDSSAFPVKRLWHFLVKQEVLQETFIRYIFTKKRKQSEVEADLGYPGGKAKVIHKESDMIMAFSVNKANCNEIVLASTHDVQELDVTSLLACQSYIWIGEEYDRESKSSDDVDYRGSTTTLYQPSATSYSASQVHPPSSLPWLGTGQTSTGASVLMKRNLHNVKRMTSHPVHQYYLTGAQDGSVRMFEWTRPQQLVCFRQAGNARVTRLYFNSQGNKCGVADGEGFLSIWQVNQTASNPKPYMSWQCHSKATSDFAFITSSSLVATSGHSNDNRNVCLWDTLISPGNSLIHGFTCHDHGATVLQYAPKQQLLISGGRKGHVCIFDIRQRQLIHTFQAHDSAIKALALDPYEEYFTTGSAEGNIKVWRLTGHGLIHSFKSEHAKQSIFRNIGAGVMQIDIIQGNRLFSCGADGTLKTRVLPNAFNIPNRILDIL
UniProt Q8TEL6: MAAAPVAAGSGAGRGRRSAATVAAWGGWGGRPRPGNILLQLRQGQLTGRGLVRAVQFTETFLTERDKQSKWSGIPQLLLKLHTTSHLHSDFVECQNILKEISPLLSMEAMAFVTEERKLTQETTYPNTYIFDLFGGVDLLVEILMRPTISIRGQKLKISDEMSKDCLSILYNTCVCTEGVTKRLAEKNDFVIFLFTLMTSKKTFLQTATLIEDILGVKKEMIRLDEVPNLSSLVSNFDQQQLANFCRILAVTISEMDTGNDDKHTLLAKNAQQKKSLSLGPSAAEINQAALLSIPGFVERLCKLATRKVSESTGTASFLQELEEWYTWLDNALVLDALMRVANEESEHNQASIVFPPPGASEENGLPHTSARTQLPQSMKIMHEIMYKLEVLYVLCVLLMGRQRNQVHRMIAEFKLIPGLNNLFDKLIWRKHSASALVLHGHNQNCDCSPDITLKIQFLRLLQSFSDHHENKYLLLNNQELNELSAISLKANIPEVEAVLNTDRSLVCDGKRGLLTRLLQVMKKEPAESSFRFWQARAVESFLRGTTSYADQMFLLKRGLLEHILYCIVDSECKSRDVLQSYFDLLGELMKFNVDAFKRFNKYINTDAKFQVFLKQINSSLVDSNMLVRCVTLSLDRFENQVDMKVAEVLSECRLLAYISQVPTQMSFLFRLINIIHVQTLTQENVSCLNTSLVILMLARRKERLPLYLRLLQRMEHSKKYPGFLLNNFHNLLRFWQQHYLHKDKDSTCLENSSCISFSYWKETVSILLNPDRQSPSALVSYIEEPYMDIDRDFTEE
UniProt Q8WU76: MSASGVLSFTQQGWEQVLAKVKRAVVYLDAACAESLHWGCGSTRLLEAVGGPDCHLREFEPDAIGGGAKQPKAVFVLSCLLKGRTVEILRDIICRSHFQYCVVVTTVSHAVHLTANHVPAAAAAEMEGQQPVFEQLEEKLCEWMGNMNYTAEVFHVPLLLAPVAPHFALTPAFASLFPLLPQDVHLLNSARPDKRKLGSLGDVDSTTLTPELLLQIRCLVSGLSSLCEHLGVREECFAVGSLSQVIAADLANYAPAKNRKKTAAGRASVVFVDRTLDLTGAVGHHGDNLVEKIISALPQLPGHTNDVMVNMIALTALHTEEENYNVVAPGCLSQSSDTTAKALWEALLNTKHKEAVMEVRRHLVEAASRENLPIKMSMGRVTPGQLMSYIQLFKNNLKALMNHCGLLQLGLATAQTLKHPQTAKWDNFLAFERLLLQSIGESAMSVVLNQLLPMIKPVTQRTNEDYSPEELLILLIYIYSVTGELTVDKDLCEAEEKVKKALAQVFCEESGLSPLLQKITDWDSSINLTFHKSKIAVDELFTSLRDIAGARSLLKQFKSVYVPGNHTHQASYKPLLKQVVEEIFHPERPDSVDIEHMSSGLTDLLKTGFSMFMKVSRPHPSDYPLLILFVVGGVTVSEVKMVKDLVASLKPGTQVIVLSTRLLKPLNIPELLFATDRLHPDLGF

Compound in the assay: CN[C@@H]1C[C@H]2O[C@@](C)([C@@H]1OC)n1c3ccccc3c3c4c(c5c6ccccc6n2c5c31)C(=O)NC4 [staurosporine]
In words: log2 fold change of tryptic peptide abundance, ligand vs vehicle (limited proteolysis) (log2 ratio); higher = more trypsin-susceptible (destabilized). The following applies: ligand concentration: 20 uM; sample: K562 cleared lysate; digestion: 4 min, 22 C (HT-PELSA RT4min, Orbitrap Astral).
For the target “NUDT8 (peptide sequence: CDPADQDVVHTALR, peptide start residue: 71) (UniProt Q8WV74)”, the log2 fold change is -0.102.
Regarding “TBC1D15 (peptide sequence: AEAISLQMVK, peptide start residue: 607) (UniProt Q8TC07)”, the log2 fold change came out at 0.685.
In the case of “CHD6 (peptide sequence: ESFLAPVFTKDEQK, peptide start residue: 2163) (UniProt Q8TD26)” it was -0.31; in that of “UniProt Q8TC56 (peptide sequence: KSSTHSSTK, peptide start residue: 498)”, -0.566; in that of “STAM (peptide sequence: VMEALSLYTK, peptide start residue: 364) (UniProt Q92783)”, -0.0821.
In the case of “RAD54L (peptide sequence: SLAPSQLAK, peptide start residue: 4) (UniProt Q92698)” it was 0.19; in that of “NUP205 (peptide sequence: AQIEQVIANCEHK, peptide start residue: 1207) (UniProt Q92621)”, 0.333.
Take “RASSF5 (peptide sequence: LSIADRPLYLR, peptide start residue: 335) (UniProt Q8WWW0)”: the log2 fold change was -0.517.
The figure for “PDCD6IP (peptide sequence: KTERDELLK, peptide start residue: 699) (UniProt Q8WUM4)” is 0.665; for “TFG (peptide sequence: QSTQVMAASMSAFDPLK, peptide start residue: 156) (UniProt Q92734)” it is 0.296; for “NUDCD2 (peptide sequence: HVALSVGGR, peptide start residue: 51) (UniProt Q8WVJ2)” it is 0.237.
In the case of “SNX29 (peptide sequence: QATVAMMNR, peptide start residue: 472) (UniProt Q8TEQ0)” it was -0.224; in that of “IP6K1 (peptide sequence: EFTPEYK, peptide start residue: 68) (UniProt Q92551)”, -0.305.
In the case of “UniProt Q8WUH1 (peptide sequence: DFMLITNK, peptide start residue: 37)” it was 0.0653; in that of “SPRYD4 (peptide sequence: DSCIGVDDR, peptide start residue: 112) (UniProt Q8WW59)”, 0.258.
As for “ZC3H15 (peptide sequence: DEELEKDTMDNWDEK, peptide start residue: 142) (UniProt Q8WU90)”, the log2 fold change was -0.176.
“MRPS27 (peptide sequence: KLPVSSLTISR, peptide start residue: 64) (UniProt Q92552)”: the log2 fold change came to 0.907.
Regarding “C15orf40 (peptide sequence: GCVTIAIHAKPGSK, peptide start residue: 61) (UniProt Q8WUR7)”, the log2 fold change is -0.152.
“UniProt Q8TDG4 (peptide sequence: AQTPIFSR, peptide start residue: 279)”: the log2 fold change is -0.134.
The figure for “CHPT1 (peptide sequence: ALSEPLSAAQLR, peptide start residue: 16) (UniProt Q8WUD6)” is 0.463; for “UniProt Q92572 (peptide sequence: VPNLPSFK, peptide start residue: 186)” it is 0.0666; for “FAR1 (peptide sequence: LIGDRPNTYIYTK, peptide start residue: 196) (UniProt Q8WVX9)” it is -0.179.
Turning to “SLC9A6 (peptide sequence: ELAFGDHELVIR, peptide start residue: 632) (UniProt Q92581)”, the log2 fold change was -0.182.
In the case of “SLC38A5 (peptide sequence: MNGALPSDAVGYRQER, peptide start residue: 8) (UniProt Q8WUX1)” it was 0.0913.
In the case of “PHF3 (peptide sequence: MAPPVDDLSPK, peptide start residue: 1125) (UniProt Q92576)”, the log2 fold change is 0.186.
In the case of “GATAD1 (peptide sequence: KGAQGEILCHHCTGR, peptide start residue: 22) (UniProt Q8WUU5)” it was -0.16; in that of “UniProt Q8TE57 (peptide sequence: FRGRHYK, peptide start residue: 30)”, 0.226.
In the case of “ARAP3 (peptide sequence: GVIPLTAIEMTR, peptide start residue: 330) (UniProt Q8WWN8)” it was -0.322; in that of “NSMCE1 (peptide sequence: MATDFAENELDLFRK, peptide start residue: 97) (UniProt Q8WV22)”, -0.576; in that of “UniProt Q92619 (peptide sequence: HASAAGFPLSGAASWTLGR, peptide start residue: 71)”, -0.499.
In the case of “DMXL2 (peptide sequence: GDPQWSELR, peptide start residue: 1623) (UniProt Q8TDJ6)” it was -0.246; in that of “TRPC4AP (peptide sequence: ILAVTISEMDTGNDDKHTLLAK, peptide start residue: 248) (UniProt Q8TEL6)”, -0.331.
Turning to “GPT2 (peptide sequence: AGEIELELQR, peptide start residue: 72) (UniProt Q8TD30)”, the log2 fold change was 0.168.
The figure for “USP6NL (peptide sequence: KLPSGPQDSSR, peptide start residue: 452) (UniProt Q92738)” is 0.403; for “SCFD2 (peptide sequence: TGFSMFMK, peptide start residue: 607) (UniProt Q8WU76)” it is -0.117; for “PYROXD1 (peptide sequence: IHLETMCEVKKIYLQDEFR, peptide start residue: 255) (UniProt Q8WU10)” it is 0.496.
On to “TRIM41 (peptide sequence: LAEQAAQLSR, peptide start residue: 353) (UniProt Q8WV44)”, for which the log2 fold change is -0.159.

The record behind these values is the supplement of paper PMC12819154, “High-throughput peptide-centric local stability assay extends protein–ligand identification to membrane proteins, tissues and bacteria” (Nature Structural & Molecular Biology, 2025).
